Experimental findings from publication PMC12826672 are described below.

In this assay the target is KCNE1 (MinK), modulatory subunit of KCNQ1 (human (endogenous in iPSC-aCMs)) (UniProt P15382). Kind of assay: co-IP; anti-KCNE1 (Alomone APC-163) IP from precleared RIPA lysates of WT and TTN-T32756I iPSC-aCMs, Protein A/G agarose beads, 4 °C; immunoblot for FHL2 and MinK.

No constants are given. Whether binding was seen depends on the method and setting. Binding seen in cells or lysates may run through a third protein. Some entries that bind do so weakly or less than the wild type.

B1: Four-and-a-half LIM domain protein 2 (FHL2) (protein, UniProt Q14192 1-279)
chain: MTERFDCHHCNESLFGKKYILREESPYCVVCFETLFANTCEECGKPIGCDCKDLSYKDRHWHEACFHCSQCRNSLVDKPFAAKEDQLLCTDCYSNEYSSKCQECKKTIMPGTRKMEYKGSSWHETCFICHRCQQPIGTKSFIPKDNQNFCVPCYEKQHAMQCVQCKKPITTGGVTYREQPWHKECFVCTACRKQLSGQRFTARDDFAYCLNCFCDLYAKKCAGCTNPISGLGGTKYISFEERQWHNDCFNCKKCSLSLVGRGFLTERDDILCPDCGKDI
As to B1, the binding result is reported as “binds”.
